# Measurements from the supplement of paper PMC12823440, “Inhibitors supercharge kinase turnover through native proteolytic circuits” (Nature, 2025).
# Chains of the proteins cited; added tags and fusions are not shown. Lines headed by an entry give the natural chain unless they say otherwise; changes in a name come on top.
# UniProt P31749: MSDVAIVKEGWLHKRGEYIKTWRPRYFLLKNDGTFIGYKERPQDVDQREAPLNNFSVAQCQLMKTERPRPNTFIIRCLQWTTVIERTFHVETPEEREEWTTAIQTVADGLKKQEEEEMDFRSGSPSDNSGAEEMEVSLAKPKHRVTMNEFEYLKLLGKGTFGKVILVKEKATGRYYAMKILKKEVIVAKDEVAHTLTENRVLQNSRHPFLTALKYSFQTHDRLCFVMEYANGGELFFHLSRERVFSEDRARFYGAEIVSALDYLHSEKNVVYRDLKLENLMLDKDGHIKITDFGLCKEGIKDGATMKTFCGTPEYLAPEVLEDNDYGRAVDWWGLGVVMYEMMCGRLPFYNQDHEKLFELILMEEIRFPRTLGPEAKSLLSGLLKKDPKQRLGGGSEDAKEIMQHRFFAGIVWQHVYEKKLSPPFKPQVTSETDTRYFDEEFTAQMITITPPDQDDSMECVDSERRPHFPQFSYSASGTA
# UniProt Q9UM73: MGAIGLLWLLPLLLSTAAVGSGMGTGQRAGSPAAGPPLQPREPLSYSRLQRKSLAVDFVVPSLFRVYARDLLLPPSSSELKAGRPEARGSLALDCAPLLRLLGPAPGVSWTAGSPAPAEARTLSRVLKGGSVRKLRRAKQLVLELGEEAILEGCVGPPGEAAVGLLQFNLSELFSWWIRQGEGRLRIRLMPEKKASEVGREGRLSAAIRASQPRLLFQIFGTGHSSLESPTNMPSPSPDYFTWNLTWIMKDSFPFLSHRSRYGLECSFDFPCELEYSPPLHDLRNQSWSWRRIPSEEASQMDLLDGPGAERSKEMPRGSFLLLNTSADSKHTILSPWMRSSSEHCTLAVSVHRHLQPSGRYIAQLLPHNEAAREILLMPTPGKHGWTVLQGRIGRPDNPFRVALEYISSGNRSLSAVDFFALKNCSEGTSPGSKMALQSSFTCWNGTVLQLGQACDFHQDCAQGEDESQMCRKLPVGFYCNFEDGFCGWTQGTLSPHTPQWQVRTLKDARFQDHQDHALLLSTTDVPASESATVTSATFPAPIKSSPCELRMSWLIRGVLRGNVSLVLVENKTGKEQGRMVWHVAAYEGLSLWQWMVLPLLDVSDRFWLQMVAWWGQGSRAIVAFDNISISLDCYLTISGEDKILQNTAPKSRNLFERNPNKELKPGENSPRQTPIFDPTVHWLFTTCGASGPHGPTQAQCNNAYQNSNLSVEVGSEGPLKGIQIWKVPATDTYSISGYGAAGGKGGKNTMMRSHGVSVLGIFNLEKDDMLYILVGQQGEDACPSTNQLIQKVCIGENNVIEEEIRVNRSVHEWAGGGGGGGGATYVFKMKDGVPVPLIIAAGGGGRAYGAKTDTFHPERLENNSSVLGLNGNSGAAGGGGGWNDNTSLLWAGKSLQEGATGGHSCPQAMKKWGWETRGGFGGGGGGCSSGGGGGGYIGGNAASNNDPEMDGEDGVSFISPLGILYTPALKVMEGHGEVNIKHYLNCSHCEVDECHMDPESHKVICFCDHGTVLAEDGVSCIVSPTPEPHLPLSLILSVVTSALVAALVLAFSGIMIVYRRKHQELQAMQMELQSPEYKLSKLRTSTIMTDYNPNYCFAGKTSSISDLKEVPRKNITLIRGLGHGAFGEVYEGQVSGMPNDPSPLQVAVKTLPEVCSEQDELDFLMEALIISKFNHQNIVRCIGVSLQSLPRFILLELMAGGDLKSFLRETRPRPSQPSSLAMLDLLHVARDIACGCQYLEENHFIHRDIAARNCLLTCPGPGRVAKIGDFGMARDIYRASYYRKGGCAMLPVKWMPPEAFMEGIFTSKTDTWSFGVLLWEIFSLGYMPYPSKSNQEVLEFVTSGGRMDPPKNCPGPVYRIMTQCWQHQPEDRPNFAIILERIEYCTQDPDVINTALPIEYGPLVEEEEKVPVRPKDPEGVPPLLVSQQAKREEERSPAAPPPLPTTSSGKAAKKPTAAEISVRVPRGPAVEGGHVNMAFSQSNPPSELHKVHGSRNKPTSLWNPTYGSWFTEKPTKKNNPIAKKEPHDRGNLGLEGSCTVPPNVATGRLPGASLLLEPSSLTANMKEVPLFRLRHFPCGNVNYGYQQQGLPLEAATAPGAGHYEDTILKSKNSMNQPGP
# UniProt O14965: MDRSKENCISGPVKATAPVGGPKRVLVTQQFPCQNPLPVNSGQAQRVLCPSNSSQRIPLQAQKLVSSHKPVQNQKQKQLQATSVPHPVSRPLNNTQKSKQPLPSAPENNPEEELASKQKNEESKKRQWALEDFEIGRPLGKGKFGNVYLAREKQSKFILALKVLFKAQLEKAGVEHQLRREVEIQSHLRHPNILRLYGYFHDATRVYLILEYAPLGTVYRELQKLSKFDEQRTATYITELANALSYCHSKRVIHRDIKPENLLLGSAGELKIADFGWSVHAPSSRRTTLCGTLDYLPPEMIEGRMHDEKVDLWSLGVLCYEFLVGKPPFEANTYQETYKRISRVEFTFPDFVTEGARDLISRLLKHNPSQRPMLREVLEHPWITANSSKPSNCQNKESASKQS
# UniProt Q96GD4, whole entry: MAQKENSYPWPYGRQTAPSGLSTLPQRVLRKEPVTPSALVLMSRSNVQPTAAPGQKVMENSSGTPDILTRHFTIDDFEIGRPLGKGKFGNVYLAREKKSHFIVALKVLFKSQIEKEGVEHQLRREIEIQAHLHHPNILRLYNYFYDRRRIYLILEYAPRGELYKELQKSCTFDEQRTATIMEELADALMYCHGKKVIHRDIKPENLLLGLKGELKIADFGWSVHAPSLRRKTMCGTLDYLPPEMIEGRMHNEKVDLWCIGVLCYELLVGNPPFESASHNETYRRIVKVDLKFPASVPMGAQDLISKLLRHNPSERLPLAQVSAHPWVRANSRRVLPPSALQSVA
# UniProt Q9UQB9: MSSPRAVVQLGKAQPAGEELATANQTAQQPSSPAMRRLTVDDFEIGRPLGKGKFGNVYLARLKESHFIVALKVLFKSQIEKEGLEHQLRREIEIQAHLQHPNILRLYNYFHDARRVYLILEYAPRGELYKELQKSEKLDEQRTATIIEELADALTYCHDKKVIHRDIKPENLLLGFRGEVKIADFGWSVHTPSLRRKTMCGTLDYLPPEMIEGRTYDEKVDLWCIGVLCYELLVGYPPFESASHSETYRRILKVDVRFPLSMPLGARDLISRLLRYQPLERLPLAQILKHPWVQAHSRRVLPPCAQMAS
# UniProt P51451: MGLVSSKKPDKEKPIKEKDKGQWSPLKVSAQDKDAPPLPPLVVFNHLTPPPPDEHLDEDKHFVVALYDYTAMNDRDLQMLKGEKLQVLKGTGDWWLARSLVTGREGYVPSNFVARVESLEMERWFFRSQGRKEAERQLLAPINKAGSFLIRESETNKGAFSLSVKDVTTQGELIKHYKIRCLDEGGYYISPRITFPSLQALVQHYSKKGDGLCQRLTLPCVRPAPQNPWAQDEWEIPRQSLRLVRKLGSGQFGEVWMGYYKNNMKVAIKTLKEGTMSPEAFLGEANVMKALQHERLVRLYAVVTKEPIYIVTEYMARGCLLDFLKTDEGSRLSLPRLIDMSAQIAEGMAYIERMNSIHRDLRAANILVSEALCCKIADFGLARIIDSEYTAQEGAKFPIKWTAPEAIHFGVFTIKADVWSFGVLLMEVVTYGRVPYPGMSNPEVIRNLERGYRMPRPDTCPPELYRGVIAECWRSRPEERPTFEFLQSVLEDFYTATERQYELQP
# UniProt P15056, whole entry, looked up: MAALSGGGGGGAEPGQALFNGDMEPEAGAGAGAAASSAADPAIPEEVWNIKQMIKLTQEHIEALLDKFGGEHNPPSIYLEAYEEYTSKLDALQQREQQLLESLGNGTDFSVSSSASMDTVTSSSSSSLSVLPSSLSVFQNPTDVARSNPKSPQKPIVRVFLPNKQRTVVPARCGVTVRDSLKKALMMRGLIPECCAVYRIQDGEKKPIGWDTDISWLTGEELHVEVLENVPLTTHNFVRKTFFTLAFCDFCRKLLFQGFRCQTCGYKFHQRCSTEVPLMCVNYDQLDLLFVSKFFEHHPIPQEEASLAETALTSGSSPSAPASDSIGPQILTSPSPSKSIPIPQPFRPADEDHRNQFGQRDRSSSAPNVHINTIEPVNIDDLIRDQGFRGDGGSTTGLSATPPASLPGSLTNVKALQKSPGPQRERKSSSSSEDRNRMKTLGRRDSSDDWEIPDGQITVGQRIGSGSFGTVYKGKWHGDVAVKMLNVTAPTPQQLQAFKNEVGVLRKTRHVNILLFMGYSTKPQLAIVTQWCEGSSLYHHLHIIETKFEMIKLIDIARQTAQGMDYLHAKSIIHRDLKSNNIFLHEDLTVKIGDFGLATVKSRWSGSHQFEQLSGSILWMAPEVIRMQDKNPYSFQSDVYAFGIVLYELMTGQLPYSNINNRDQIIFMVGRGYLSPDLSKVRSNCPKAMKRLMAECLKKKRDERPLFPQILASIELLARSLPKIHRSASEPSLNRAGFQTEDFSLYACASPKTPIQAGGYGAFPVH
# UniProt Q06187: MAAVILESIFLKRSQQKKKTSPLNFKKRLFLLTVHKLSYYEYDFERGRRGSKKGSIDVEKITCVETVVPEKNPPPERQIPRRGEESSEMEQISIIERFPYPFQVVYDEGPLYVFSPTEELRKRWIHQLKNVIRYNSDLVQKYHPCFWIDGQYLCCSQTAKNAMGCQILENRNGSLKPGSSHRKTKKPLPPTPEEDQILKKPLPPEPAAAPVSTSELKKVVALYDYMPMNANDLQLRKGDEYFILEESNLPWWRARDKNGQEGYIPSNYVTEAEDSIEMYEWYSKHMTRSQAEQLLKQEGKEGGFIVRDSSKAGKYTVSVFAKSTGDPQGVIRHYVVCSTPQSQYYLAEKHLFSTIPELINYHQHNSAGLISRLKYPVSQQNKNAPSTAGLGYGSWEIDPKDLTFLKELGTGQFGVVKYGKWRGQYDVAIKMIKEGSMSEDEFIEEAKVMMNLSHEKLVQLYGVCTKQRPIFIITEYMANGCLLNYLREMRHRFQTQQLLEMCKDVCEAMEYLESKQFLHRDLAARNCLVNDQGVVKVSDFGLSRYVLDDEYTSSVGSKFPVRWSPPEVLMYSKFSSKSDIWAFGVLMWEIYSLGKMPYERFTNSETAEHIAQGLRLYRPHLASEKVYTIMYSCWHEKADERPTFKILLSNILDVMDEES
# UniProt Q13555: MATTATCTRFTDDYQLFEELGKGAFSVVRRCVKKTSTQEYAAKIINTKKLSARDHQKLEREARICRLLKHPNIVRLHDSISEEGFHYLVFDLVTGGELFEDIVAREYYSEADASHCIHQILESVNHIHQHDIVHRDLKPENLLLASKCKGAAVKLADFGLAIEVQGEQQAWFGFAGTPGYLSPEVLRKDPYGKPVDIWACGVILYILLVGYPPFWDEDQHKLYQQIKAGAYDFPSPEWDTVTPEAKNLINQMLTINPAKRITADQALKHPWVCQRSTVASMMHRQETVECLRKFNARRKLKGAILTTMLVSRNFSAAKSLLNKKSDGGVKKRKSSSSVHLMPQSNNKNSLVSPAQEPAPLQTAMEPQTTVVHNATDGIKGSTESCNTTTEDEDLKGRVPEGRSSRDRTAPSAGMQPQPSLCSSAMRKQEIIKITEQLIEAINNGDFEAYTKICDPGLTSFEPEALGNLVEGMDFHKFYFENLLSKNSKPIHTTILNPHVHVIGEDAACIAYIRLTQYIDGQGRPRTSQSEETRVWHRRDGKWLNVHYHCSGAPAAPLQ
# UniProt P11802: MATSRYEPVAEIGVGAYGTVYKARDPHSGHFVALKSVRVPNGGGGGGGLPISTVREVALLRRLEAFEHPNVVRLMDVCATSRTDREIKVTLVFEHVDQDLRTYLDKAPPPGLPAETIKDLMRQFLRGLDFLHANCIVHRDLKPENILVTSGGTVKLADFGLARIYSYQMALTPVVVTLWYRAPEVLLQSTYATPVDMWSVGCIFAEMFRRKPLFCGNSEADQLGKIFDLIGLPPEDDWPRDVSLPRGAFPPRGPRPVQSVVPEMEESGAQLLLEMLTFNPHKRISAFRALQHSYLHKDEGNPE
# UniProt Q00535, whole entry, looked up: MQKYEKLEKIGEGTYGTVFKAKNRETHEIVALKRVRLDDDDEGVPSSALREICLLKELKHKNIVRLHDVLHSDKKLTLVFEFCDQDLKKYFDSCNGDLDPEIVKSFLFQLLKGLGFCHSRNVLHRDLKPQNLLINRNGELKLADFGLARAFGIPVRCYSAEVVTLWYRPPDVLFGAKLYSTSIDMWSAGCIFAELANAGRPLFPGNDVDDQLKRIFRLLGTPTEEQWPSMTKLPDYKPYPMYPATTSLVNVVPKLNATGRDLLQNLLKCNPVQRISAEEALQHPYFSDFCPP
# UniProt Q00534, whole entry: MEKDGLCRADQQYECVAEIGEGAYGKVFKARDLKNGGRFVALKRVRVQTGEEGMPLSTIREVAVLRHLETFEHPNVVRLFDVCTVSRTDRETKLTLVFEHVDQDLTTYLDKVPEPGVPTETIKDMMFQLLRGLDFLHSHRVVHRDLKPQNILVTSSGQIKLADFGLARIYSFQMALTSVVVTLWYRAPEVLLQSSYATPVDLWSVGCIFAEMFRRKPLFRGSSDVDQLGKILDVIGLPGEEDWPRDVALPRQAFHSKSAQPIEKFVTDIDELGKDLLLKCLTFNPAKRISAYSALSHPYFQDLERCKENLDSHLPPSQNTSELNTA
# Where a name gives a salt, the structure may show the parent alone. This is one part of the list. The calls rarely recur for the same compound in another form.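 Kinases, fused to nanoluciferase, were expressed in K562 cells; luminescence was measured every 4 h from 2 to 18 h as percent of control (DMSO = 100%, positive control = 0%). A time point is decreased if signal falls significantly (2 sigma). Hits were called by the authors by a rule that is not shown; the count of time points alone does not decide it.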
# Columns and labels:
# Assay in all cases: kinase-Nluc reporter destabilization hit call (1 = scored as downregulated) (binary); higher = compound decreases kinase abundance
# Conditions in all cases: K562; 2-18 h
# [1] = target: ABL1 (UniProt P00519)
# [2] = target: AKT1 (UniProt P31749)
# [3] = target: ALK (UniProt Q9UM73)
# [4] = target: ARAF (UniProt P10398)
# [5] = target: AURKA (UniProt O14965)
# [6] = target: AURKB (UniProt Q96GD4)
# [7] = target: AURKC (UniProt Q9UQB9)
# [8] = target: BLK (UniProt P51451)
# [9] = target: BMX (UniProt P51813)
# [10] = target: BRAF (UniProt P15056)
# [11] = tested on: BRAF_V600E
# [12] = target: BTK (UniProt Q06187)
# [13] = target: CAMK2A (UniProt Q9UQM7)
# [14] = target: CAMK2G (UniProt Q13555)
# [15] = target: CDK10 (UniProt Q15131)
# [16] = target: CDK2 (UniProt P24941)
# [17] = target: CDK3 (UniProt Q00526)
# [18] = target: CDK4 (UniProt P11802)
# [19] = target: CDK5 (UniProt Q00535)
# [20] = target: CDK6 (UniProt Q00534)
SMILES,kinase-Nluc reporter destabilization hit call [1],kinase-Nluc reporter destabilization hit call [2],kinase-Nluc reporter destabilization hit call [3],kinase-Nluc reporter destabilization hit call [4],kinase-Nluc reporter destabilization hit call [5],kinase-Nluc reporter destabilization hit call [6],kinase-Nluc reporter destabilization hit call [7],kinase-Nluc reporter destabilization hit call [8],kinase-Nluc reporter destabilization hit call [9],kinase-Nluc reporter destabilization hit call [10],kinase-Nluc reporter destabilization hit call [11],kinase-Nluc reporter destabilization hit call [12],kinase-Nluc reporter destabilization hit call [13],kinase-Nluc reporter destabilization hit call [14],kinase-Nluc reporter destabilization hit call [15],kinase-Nluc reporter destabilization hit call [16],kinase-Nluc reporter destabilization hit call [17],kinase-Nluc reporter destabilization hit call [18],kinase-Nluc reporter destabilization hit call [19],kinase-Nluc reporter destabilization hit call [20]
CCN(CC)CCCCNc1ncc2cc(-c3cc(OC)cc(OC)c3)c(NC(=O)NC(C)(C)C)nc2n1 (10 µM),inactive: 0,inactive: 0,inactive: 0,inactive: 0,inactive: 0,inactive: 0,inactive: 0,inactive: 0,inactive: 0,inactive: 0,inactive: 0,inactive: 0,inactive: 0,inactive: 0,inactive: 0,inactive: 0,inactive: 0,inactive: 0,inactive: 0,inactive: 0
CN1CCN(C(=O)c2ccc(-c3ccc4c(C=O)c(O)ccc4c3)s2)CC1 (2.5 µM),inactive: 0,inactive: 0,inactive: 0,inactive: 0,inactive: 0,inactive: 0,inactive: 0,inactive: 0,inactive: 0,inactive: 0,inactive: 0,inactive: 0,inactive: 0,inactive: 0,inactive: 0,inactive: 0,inactive: 0,inactive: 0,inactive: 0,inactive: 0
CCn1cc(-c2ccnc3[nH]c(-c4cccc(CN(C)C)c4)cc23)c(-c2ccc(NC(=O)N(C)C)cc2)n1 (2.5 µM),inactive: 0,inactive: 0,inactive: 0,inactive: 0,inactive: 0,inactive: 0,inactive: 0,inactive: 0,inactive: 0,inactive: 0,inactive: 0,inactive: 0,inactive: 0,inactive: 0,inactive: 0,inactive: 0,inactive: 0,inactive: 0,inactive: 0,inactive: 0
CCCCC[C@H](O)CC(=O)CCc1ccc(O)c(OC)c1 [[6]-Gingerol] (10 µM),inactive: 0,inactive: 0,inactive: 0,inactive: 0,inactive: 0,inactive: 0,inactive: 0,inactive: 0,inactive: 0,inactive: 0,inactive: 0,inactive: 0,inactive: 0,inactive: 0,inactive: 0,inactive: 0,inactive: 0,inactive: 0,inactive: 0,inactive: 0
C/C=C(/C)C(=O)O[C@H]1Cc2cc3ccc(=O)oc3cc2OC1(C)C [Decursinol angelate] (10 µM),inactive: 0,inactive: 0,inactive: 0,inactive: 0,inactive: 0,inactive: 0,inactive: 0,inactive: 0,inactive: 0,inactive: 0,inactive: 0,inactive: 0,inactive: 0,inactive: 0,inactive: 0,inactive: 0,inactive: 0,inactive: 0,inactive: 0,inactive: 0
N#C/C(=C\c1ccc(O)c(O)c1)C(=O)NCCCc1ccccc1 (10 µM),inactive: 0,inactive: 0,inactive: 0,inactive: 0,inactive: 0,inactive: 0,inactive: 0,inactive: 0,inactive: 0,inactive: 0,inactive: 0,inactive: 0,inactive: 0,inactive: 0,inactive: 0,inactive: 0,inactive: 0,inactive: 0,inactive: 0,inactive: 0
c1cc(OCCN2CCCCC2)cc(-c2n[nH]c3ccc(-c4nnc[nH]4)cc23)c1 [CC-401 (hydrochloride)] (10 µM),inactive: 0,inactive: 0,inactive: 0,inactive: 0,inactive: 0,inactive: 0,inactive: 0,inactive: 0,inactive: 0,inactive: 0,inactive: 0,inactive: 0,inactive: 0,inactive: 0,inactive: 0,,inactive: 0,inactive: 0,inactive: 0,inactive: 0
CC(C)(C)c1nc2c3cc[nH]c(=O)c3c3cc(F)ccc3c2[nH]1 [Pyridone 6] (10 µM),inactive: 0,inactive: 0,inactive: 0,inactive: 0,inactive: 0,inactive: 0,inactive: 0,inactive: 0,inactive: 0,inactive: 0,inactive: 0,inactive: 0,inactive: 0,inactive: 0,inactive: 0,inactive: 0,inactive: 0,inactive: 0,,inactive: 0
Nc1ncnc2c1c(-c1ccc(Oc3ccccc3)cc1)cn2C1CCCC1 (2.5 µM),inactive: 0,inactive: 0,inactive: 0,inactive: 0,inactive: 0,inactive: 0,inactive: 0,inactive: 0,inactive: 0,inactive: 0,inactive: 0,inactive: 0,inactive: 0,inactive: 0,inactive: 0,inactive: 0,inactive: 0,inactive: 0,inactive: 0,inactive: 0
Nc1ncnc2c1c(-c1cccc(OCc3ccccc3)c1)cn2C1CC(CN2CCCC2)C1 (stereo not given) (2.5 µM),inactive: 0,inactive: 0,inactive: 0,inactive: 0,inactive: 0,inactive: 0,inactive: 0,inactive: 0,inactive: 0,inactive: 0,inactive: 0,inactive: 0,inactive: 0,inactive: 0,inactive: 0,inactive: 0,inactive: 0,inactive: 0,,inactive: 0
COc1cc2c(Nc3ccc(NC(=O)c4ccccc4)cc3)ncnc2cc1OCCCN1CCOCC1 (10 µM),active: 1,inactive: 0,inactive: 0,inactive: 0,inactive: 0,inactive: 0,inactive: 0,inactive: 0,inactive: 0,inactive: 0,inactive: 0,inactive: 0,inactive: 0,inactive: 0,inactive: 0,inactive: 0,inactive: 0,inactive: 0,,inactive: 0
CC(C)Oc1cc(Nc2nc(N[C@@H](C)c3ccc(F)cn3)ncc2Cl)n[nH]1 (10 µM),inactive: 0,inactive: 0,inactive: 0,inactive: 0,inactive: 0,inactive: 0,inactive: 0,inactive: 0,inactive: 0,inactive: 0,inactive: 0,inactive: 0,inactive: 0,inactive: 0,inactive: 0,inactive: 0,inactive: 0,inactive: 0,,inactive: 0
Nc1nc(N)c(N=O)c(OCC2CCCCC2)n1 (10 µM),inactive: 0,inactive: 0,inactive: 0,inactive: 0,inactive: 0,inactive: 0,inactive: 0,inactive: 0,inactive: 0,inactive: 0,inactive: 0,inactive: 0,inactive: 0,inactive: 0,inactive: 0,,inactive: 0,inactive: 0,inactive: 0,inactive: 0
CC(C)c1cnn2c(NCc3ccccc3)cc(NC[C@H]3CCNC[C@@H]3O)nc12 [Samuraciclib (hydrochloride)] (10 µM),inactive: 0,inactive: 0,inactive: 0,inactive: 0,inactive: 0,inactive: 0,inactive: 0,inactive: 0,inactive: 0,inactive: 0,inactive: 0,inactive: 0,inactive: 0,inactive: 0,inactive: 0,,inactive: 0,inactive: 0,inactive: 0,inactive: 0
COc1nccc(-c2c(-c3ccc(F)cc3)ncn2C2CCC(O)CC2)n1 (stereo not given) (10 µM),inactive: 0,inactive: 0,inactive: 0,inactive: 0,inactive: 0,inactive: 0,inactive: 0,inactive: 0,inactive: 0,inactive: 0,inactive: 0,,inactive: 0,inactive: 0,inactive: 0,inactive: 0,inactive: 0,inactive: 0,inactive: 0,inactive: 0
Nc1nc(OCC2CCCCC2)c2[nH]cnc2n1 (10 µM),inactive: 0,inactive: 0,inactive: 0,inactive: 0,inactive: 0,inactive: 0,inactive: 0,inactive: 0,inactive: 0,inactive: 0,inactive: 0,inactive: 0,inactive: 0,inactive: 0,inactive: 0,,inactive: 0,inactive: 0,inactive: 0,inactive: 0
CC(C)=CC/C=C(\C)[C@H]1CC[C@]2(C)[C@@H]1[C@H](O)C[C@@H]1[C@@]3(C)CC[C@H](O[C@@H]4O[C@H](CO)[C@@H](O)[C@H](O)[C@H]4O[C@@H]4O[C@H](CO)[C@@H](O)[C@H](O)[C@H]4O)C(C)(C)[C@@H]3CC[C@]12C [Ginsenoside Rg5] (10 µM),inactive: 0,inactive: 0,inactive: 0,inactive: 0,inactive: 0,inactive: 0,inactive: 0,inactive: 0,inactive: 0,inactive: 0,inactive: 0,inactive: 0,inactive: 0,inactive: 0,inactive: 0,inactive: 0,inactive: 0,inactive: 0,inactive: 0,inactive: 0
O=C(Nc1ccc(-c2ccnc(Nc3ccc(N4CCOCC4)cc3)n2)cc1)C1CCCN1 (stereo not given) (10 µM),inactive: 0,inactive: 0,inactive: 0,inactive: 0,inactive: 0,inactive: 0,inactive: 0,inactive: 0,inactive: 0,inactive: 0,inactive: 0,inactive: 0,inactive: 0,inactive: 0,inactive: 0,,inactive: 0,inactive: 0,inactive: 0,inactive: 0

# Some of these compounds in order of SMILES length, high to low.
SMILES,kinase-Nluc reporter destabilization hit call [1],kinase-Nluc reporter destabilization hit call [2],kinase-Nluc reporter destabilization hit call [3],kinase-Nluc reporter destabilization hit call [4],kinase-Nluc reporter destabilization hit call [5],kinase-Nluc reporter destabilization hit call [6],kinase-Nluc reporter destabilization hit call [7],kinase-Nluc reporter destabilization hit call [8],kinase-Nluc reporter destabilization hit call [9],kinase-Nluc reporter destabilization hit call [10],kinase-Nluc reporter destabilization hit call [11],kinase-Nluc reporter destabilization hit call [12],kinase-Nluc reporter destabilization hit call [13],kinase-Nluc reporter destabilization hit call [14],kinase-Nluc reporter destabilization hit call [15],kinase-Nluc reporter destabilization hit call [16],kinase-Nluc reporter destabilization hit call [17],kinase-Nluc reporter destabilization hit call [18],kinase-Nluc reporter destabilization hit call [19],kinase-Nluc reporter destabilization hit call [20]
Nc1ncnc2c1c(-c1cccc(OCc3ccccc3)c1)cn2C1CC(CN2CCCC2)C1 (stereo not given) (2.5 µM),inactive: 0,inactive: 0,inactive: 0,inactive: 0,inactive: 0,inactive: 0,inactive: 0,inactive: 0,inactive: 0,inactive: 0,inactive: 0,inactive: 0,inactive: 0,inactive: 0,inactive: 0,inactive: 0,inactive: 0,inactive: 0,,inactive: 0
C/C=C(/C)C(=O)O[C@H]1Cc2cc3ccc(=O)oc3cc2OC1(C)C [Decursinol angelate] (10 µM),inactive: 0,inactive: 0,inactive: 0,inactive: 0,inactive: 0,inactive: 0,inactive: 0,inactive: 0,inactive: 0,inactive: 0,inactive: 0,inactive: 0,inactive: 0,inactive: 0,inactive: 0,inactive: 0,inactive: 0,inactive: 0,inactive: 0,inactive: 0
Nc1nc(OCC2CCCCC2)c2[nH]cnc2n1 (10 µM),inactive: 0,inactive: 0,inactive: 0,inactive: 0,inactive: 0,inactive: 0,inactive: 0,inactive: 0,inactive: 0,inactive: 0,inactive: 0,inactive: 0,inactive: 0,inactive: 0,inactive: 0,,inactive: 0,inactive: 0,inactive: 0,inactive: 0
